Test [1] concerns the target T1, Flag-Zc3h10 (mouse) (UniProt Q8R205).
T1 sequence: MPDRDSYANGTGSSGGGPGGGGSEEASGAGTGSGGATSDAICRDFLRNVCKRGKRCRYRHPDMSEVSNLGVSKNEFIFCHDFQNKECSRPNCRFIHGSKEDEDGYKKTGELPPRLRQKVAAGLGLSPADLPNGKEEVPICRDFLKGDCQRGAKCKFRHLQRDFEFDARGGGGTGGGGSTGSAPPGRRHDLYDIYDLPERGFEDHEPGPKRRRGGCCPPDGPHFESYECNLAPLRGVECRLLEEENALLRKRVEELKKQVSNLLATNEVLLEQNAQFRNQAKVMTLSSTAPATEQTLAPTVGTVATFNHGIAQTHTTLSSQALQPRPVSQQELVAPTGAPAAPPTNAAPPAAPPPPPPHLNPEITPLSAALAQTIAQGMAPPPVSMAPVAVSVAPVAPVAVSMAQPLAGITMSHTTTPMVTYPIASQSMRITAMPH
In words: co-IP; lysates of HEK293 cells cotransfected with FLAG-tagged Zc3h10 and HA-tagged Dot1l (whole or truncated); IP buffer 20 mM Tris pH 7.4, 150 mM NaCl, 1 mM EDTA, 10% glycerol, 1% NP-40; 2 hr at 4°C with anti-FLAG M2 or anti-HA; immunoblot.

Chains of the proteins cited; added tags and fusions are not shown.
UniProt Q6XZL8: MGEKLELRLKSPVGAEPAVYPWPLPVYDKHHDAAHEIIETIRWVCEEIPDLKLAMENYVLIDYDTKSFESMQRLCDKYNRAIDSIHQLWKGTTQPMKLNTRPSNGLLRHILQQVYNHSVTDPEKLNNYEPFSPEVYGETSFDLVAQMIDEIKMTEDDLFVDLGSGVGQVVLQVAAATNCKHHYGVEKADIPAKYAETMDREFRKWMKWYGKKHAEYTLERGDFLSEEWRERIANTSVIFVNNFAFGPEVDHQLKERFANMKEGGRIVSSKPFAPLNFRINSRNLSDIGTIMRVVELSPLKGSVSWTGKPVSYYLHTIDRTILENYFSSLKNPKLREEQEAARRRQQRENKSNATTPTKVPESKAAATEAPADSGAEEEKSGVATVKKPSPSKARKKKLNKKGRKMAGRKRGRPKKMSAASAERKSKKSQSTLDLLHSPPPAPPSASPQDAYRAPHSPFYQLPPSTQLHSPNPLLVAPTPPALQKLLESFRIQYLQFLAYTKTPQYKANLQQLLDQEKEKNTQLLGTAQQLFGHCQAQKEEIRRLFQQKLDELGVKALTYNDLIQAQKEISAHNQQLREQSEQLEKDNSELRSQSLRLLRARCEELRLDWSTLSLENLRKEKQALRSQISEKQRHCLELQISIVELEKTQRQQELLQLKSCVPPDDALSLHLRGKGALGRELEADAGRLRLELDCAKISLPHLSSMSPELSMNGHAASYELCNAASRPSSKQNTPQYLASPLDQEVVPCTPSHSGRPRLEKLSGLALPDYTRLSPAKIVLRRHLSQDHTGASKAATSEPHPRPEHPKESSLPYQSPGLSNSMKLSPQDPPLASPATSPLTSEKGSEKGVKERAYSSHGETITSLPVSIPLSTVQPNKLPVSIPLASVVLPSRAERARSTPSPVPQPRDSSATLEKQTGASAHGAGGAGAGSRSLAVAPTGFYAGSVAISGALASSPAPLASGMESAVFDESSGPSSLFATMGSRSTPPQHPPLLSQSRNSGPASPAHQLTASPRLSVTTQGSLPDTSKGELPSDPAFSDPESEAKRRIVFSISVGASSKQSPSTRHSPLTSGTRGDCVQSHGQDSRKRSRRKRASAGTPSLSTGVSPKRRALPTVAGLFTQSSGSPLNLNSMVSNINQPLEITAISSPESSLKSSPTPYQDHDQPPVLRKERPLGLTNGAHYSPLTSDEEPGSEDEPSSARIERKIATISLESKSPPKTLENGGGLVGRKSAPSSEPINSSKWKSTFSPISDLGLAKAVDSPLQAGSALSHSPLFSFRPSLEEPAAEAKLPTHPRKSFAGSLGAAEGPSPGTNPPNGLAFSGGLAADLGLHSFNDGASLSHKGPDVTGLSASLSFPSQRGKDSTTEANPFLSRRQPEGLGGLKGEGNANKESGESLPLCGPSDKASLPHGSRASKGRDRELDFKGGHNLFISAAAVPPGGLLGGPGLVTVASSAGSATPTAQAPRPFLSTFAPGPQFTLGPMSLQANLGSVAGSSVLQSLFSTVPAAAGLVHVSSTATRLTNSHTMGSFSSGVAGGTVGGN

In test [2] the target is T2, endogenous Zc3h10 (mouse (endogenous in BAT)) (UniProt Q8R205).
T2 sequence: T1 sequence
In words: co-IP; endogenous proteins, nuclear extracts of BAT of wild-type mice (also mice housed at room temperature or 4°C); Dot1l or Zc3h10 antibody and protein A/G agarose beads overnight at 4°C; immunoblot.

Two substances from publication PMC7661038 can be followed below.

No constants are given. Whether binding was seen depends on the method and setting. Binding seen in cells or lysates may run through a third protein. Some binding calls cover weakened binding; strength is not graded here. For some assays here: Tags and fused reporters may be left off the sequences shown.

On to “HA-Dot1l (from UniProt Q6XZL8 1-1540) (enzyme)”, for which the binding entry in test [1] is listed as “binds”.

As for “endogenous Dot1l (from UniProt Q6XZL8 1-1540) (enzyme)”, in test [2], the binding entry is given as “binds”.
